Consider three substances from PMC10123117.

Protein sequences, listed by entry. Tags and fused reporters are not part of them.
UniProt Q6A4J8: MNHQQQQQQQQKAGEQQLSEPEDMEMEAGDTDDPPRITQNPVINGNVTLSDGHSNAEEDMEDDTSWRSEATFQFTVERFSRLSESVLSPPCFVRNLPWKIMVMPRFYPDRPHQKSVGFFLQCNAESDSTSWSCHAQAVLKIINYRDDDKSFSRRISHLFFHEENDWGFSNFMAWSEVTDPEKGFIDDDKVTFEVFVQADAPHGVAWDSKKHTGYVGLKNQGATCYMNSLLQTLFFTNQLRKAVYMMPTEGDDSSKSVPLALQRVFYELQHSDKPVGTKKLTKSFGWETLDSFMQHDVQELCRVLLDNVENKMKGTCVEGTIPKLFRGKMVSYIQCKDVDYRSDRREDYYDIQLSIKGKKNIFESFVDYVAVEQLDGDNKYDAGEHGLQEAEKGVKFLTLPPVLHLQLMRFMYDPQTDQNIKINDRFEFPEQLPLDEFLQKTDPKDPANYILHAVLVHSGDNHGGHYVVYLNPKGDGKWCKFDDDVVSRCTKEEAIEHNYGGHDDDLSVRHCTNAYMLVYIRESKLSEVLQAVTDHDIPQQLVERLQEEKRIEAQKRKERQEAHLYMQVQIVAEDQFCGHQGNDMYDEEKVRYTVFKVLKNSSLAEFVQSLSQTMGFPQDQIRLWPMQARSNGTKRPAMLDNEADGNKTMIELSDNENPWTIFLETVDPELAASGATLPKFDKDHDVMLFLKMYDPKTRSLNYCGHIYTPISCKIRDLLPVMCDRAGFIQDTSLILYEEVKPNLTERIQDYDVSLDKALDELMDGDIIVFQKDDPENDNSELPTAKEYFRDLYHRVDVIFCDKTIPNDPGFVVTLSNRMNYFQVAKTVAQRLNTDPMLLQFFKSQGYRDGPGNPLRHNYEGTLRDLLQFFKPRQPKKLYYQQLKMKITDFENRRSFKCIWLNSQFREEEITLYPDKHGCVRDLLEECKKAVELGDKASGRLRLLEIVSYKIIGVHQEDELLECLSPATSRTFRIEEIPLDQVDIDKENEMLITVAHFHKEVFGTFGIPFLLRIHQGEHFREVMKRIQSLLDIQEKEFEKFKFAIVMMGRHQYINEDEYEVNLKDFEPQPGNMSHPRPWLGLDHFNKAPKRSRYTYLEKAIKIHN
UniProt P59178: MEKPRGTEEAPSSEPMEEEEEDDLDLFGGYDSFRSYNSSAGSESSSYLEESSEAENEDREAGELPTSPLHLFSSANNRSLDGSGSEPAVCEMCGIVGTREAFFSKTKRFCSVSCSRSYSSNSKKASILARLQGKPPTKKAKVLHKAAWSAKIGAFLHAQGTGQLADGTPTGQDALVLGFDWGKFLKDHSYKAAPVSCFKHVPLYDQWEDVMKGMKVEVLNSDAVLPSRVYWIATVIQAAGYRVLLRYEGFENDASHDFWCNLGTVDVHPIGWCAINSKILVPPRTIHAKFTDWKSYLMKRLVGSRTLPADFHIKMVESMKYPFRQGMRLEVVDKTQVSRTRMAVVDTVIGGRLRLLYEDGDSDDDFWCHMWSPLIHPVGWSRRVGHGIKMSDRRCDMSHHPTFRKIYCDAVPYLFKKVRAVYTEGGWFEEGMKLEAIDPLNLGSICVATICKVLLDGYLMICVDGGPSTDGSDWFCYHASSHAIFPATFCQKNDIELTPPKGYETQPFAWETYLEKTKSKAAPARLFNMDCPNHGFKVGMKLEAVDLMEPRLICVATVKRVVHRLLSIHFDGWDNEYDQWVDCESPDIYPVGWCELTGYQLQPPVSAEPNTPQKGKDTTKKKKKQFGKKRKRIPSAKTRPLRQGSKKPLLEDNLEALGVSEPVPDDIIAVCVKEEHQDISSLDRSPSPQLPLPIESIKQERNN
UniProt A2AWL7: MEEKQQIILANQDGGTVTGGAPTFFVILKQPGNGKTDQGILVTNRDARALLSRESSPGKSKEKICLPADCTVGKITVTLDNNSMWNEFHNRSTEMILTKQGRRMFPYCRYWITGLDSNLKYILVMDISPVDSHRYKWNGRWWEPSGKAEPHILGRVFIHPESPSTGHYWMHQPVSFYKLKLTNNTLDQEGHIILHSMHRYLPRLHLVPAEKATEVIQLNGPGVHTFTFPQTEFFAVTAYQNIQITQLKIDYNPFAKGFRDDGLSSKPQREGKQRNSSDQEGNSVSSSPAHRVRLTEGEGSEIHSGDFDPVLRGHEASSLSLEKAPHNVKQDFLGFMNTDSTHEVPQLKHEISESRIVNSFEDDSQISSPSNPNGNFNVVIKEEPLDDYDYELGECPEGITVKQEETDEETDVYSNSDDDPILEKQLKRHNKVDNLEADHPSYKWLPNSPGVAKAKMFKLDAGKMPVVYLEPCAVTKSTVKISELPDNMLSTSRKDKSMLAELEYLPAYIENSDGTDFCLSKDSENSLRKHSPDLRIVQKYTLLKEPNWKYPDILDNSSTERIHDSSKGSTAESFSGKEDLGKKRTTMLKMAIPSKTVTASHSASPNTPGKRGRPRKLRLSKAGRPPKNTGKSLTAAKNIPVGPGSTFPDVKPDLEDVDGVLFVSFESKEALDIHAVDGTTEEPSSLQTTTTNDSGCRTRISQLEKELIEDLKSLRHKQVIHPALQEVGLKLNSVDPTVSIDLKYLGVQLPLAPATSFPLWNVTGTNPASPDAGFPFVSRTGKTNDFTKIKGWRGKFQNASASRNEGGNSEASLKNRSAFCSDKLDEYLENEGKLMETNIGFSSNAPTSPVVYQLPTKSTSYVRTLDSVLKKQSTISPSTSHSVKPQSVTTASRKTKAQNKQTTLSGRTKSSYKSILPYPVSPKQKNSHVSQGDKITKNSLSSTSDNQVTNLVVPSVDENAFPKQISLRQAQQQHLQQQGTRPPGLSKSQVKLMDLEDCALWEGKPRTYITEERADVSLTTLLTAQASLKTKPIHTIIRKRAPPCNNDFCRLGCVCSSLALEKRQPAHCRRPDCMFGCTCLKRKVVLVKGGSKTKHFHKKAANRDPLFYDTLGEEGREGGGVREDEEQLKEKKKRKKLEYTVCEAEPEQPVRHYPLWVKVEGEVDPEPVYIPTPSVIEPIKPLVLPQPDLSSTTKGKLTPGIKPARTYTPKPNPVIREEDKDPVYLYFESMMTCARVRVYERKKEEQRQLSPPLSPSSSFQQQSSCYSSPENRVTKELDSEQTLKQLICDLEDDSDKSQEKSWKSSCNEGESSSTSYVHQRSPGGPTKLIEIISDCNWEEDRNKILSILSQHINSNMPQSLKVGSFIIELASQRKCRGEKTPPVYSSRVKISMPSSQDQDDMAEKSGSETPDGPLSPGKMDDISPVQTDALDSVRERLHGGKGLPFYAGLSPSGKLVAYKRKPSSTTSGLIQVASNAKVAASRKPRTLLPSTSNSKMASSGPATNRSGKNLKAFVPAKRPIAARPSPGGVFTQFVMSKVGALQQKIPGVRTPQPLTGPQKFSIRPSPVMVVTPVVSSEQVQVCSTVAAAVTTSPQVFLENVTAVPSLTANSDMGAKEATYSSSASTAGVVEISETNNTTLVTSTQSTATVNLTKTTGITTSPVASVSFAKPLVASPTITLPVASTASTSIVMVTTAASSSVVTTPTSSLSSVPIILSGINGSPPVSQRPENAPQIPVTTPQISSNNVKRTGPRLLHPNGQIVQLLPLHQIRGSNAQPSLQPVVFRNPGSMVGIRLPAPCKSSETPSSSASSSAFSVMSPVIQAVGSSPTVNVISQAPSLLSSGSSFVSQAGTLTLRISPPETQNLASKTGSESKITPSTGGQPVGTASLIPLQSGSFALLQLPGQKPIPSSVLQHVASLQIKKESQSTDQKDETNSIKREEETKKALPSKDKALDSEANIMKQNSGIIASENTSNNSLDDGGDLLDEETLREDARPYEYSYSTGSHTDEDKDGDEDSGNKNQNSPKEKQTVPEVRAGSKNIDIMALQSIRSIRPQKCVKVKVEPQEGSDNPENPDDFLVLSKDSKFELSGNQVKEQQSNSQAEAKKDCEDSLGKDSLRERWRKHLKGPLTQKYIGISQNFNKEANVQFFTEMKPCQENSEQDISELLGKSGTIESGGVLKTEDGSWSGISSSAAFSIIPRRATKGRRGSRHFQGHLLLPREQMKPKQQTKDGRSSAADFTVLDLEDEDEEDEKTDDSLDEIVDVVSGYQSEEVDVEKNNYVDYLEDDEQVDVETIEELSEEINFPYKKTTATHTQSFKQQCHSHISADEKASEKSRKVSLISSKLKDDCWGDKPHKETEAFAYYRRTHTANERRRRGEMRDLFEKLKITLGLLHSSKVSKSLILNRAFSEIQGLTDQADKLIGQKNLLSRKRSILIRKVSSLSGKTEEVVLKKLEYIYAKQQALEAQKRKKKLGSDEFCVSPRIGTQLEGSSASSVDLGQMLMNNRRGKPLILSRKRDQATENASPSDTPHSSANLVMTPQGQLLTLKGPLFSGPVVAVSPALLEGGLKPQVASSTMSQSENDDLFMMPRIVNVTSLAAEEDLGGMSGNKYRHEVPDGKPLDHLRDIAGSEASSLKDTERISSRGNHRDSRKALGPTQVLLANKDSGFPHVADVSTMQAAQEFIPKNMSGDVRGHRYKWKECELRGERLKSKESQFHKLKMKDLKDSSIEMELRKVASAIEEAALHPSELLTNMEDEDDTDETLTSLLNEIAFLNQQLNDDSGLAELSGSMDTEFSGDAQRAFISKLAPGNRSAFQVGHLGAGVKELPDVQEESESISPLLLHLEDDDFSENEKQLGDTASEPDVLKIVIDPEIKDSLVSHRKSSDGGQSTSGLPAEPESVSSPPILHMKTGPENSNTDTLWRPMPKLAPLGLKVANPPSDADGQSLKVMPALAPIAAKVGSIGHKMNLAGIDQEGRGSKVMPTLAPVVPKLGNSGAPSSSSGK
UniProt Q9CQJ4: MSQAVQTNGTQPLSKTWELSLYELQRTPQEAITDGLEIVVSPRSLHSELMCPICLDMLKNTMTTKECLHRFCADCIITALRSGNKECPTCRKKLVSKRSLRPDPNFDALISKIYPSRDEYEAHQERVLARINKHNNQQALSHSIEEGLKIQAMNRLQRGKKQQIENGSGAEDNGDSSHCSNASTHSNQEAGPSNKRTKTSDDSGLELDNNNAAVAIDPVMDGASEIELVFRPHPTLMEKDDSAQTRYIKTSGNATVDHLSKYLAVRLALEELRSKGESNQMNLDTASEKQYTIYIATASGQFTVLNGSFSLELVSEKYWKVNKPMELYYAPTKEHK

No constants are given. Whether binding was seen depends on the method and setting. In cells and extracts the contact can be indirect. Some entries that bind do so weakly or less than the wild type.

The target of this experiment is USP7 (mouse (endogenous in E14TG2a ES cells)) (UniProt Q6A4J8). The experiment in a line: co-IP; endogenous USP7 immunoprecipitated from 2 mg mESC lysate (50 mM Tris-HCl pH 7.5, 150 mM NaCl, 0.5 mM EDTA, 1% Triton X100) with anti-USP7 antibody overnight at 4°C, Protein A/G magnetic beads, washes with 250 mM NaCl; Western blot; Usp7-KO ES cells as negative control. Background: A western blot detects proteins with antibodies after separation by electrophoresis.

With L3MBTL2 (from UniProt P59178 1-703), the binding result is “binds”.

As for MGA (from UniProt A2AWL7 1-3003), the binding entry is recorded as “binds”.

Consider RING1B (from UniProt Q9CQJ4 1-336), for which the binding entry was “binds”.
